Test results taken from US6812225B2, “Therapeutic heterocyclic compounds” (AstraZeneca AB, priority 2001, dated 2004).
At least one compound was matched to its structure with a doubt left. Some entries share one result that the patent states for a list of compounds. Some compounds share one range, which may span the group rather than tell each member.

By UniProt entry, the sequences of proteins in these tests, tags left out.
UniProt O08892, whole entry: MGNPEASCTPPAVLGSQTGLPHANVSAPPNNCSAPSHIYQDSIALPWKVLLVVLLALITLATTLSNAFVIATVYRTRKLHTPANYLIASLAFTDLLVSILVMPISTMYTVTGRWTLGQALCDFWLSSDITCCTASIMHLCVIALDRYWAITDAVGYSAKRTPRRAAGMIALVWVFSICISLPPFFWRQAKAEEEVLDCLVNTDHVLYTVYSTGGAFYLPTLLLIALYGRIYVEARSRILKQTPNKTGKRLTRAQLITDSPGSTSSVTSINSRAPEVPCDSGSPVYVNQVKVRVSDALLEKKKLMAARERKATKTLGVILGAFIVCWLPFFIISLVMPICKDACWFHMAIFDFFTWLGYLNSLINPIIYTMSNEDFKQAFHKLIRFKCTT

Tests used:
5-HT1B receptor = target: T1, 5-HT1B receptor (Cavia porcellus, UniProt O08892); assay: Guinea pig hypothermia test (block of 5-HT1B agonist-induced hypothermia); type: in vivo; conditions: reversal of 5HT1B agonist-induced hypothermia in the guinea pig
T1 construct: from tissue; host or cells: whole animal, male Dunkin-Hartley guinea pig

[1] = tested on: 5-HT1B receptors and 5-HT1D receptors; assay: Radioligand competition binding with [3H]-GR125743 on membranes of transfected CHO cells; conditions: CHO membranes expressing 5-HT1B and 5-HT1D receptors

CCS(=O)(=O)N1CCN(c2ccc(NC(=O)c3cc(=O)c4cc(F)cc(N5CCN(C)CC5)c4o3)cc2)CC1 [Example 71]
5HT1B antagonist activity, dosage range (5-HT1B receptor): 0.006 to 5.5 mg/kg

CCC(=O)N1CCN(c2ccc(NC(=O)c3cc(=O)c4cc(F)cc(N5CCN(C)CC5)c4o3)cc2)CC1 [Example 72, 6-flouro-8-(4-methyl-piperazin-1-yl)-4-oxo-4H-chromene-2-carboxylic acid [4-(4-propionyl-piperazin-1-yl)-phenyl]-amide]
5HT1B antagonist activity, dosage range (5-HT1B receptor): 0.006 to 5.5 mg/kg

COc1cc(N2CCN(C)CC2)c2oc(C(=O)Nc3ccc(N4CCOCC4)c(F)c3)cc(=O)c2c1 [Example 34, 6-Methoxy-8-(4-methyl-piperazin-1-yl)-4-oxo-4H-chromene-2-carboxylic acid (3-fluoro-4-morpholin-4-yl-phenyl)-amide]
5HT1B antagonist activity, dosage range (5-HT1B receptor): 0.006 to 5.5 mg/kg

CCC(=O)N1CCN(c2ccc(NC(=O)c3cc(=O)c4cc(OC)cc(N5CCN(C)CC5)c4o3)cc2)CC1 [Example 44, 6-Methoxy-8-(4-methyl-piperazin-1-yl)-4-oxo-4H-chromene-2-carboxylic acid [4-(4-propionyl-piperazin-1-yl)-phenyl]-amide]
5HT1B antagonist activity, dosage range (5-HT1B receptor): 0.006 to 5.5 mg/kg

CC(=O)N1CCN(c2ccc(NC(=O)c3cc(=O)c4cc(F)cc(N5CCN(C)CC5)c4o3)cc2)CC1 [Example 57, 6-Fluoro-8-(4-methyl-piperazin-1-yl)-4-oxo-4H-chromene-2-carboxylic acid [4-(4-acetyl-piperazin-1-yl)-phenyl]-amide]
5HT1B antagonist activity, dosage range (5-HT1B receptor): 0.006 to 5.5 mg/kg

COc1cc(N2CCN(C)CC2)c2oc(C(=O)Nc3ccc(N4CCOCC4)cc3)cc(=O)c2c1 [Example 31, 6-Methoxy-8-(4-methyl-piperazin-1-yl)-4-oxo-4H-chromene-2-carboxylic acid (4-morpholin-4-yl-phenyl)-amide]
5HT1B antagonist activity, dosage range (5-HT1B receptor): 0.006 to 5.5 mg/kg

CC(=O)N1CCN(c2ccc(NC(=O)c3cc(=O)c4cccc(N5CCN(C)CC5)c4o3)cc2)CC1 [Example 10, 8-(4-Methyl-piperazin-1-yl)-4-oxo-4H-chromene-2-carboxylic acid [4-(4-acetyl-piperazin-1-yl)-phenyl]-amide]
5HT1B antagonist activity, dosage range (5-HT1B receptor): 0.006 to 5.5 mg/kg

[3H]C([3H])([3H])N1CCN(c2cc(NC(=O)c3ccc(-c4ccncc4)c(C)c3)ccc2OC)CC1 [[^3H]-GR125743]
Kd for [3H]-GR125743 [1]: 150 to 0.00025 µM

COc1cc(N2CCN(C)CC2)c2oc(C(=O)Nc3ccc(N4CCN(S(C)(=O)=O)CC4)cc3)cc(=O)c2c1 [Example 32, 6-Methoxy-8-(4-methyl-piperazin-1-yl)-4-oxo-4H-chromene-2-carboxylic acid [4-(4-methanesulfonyl-piperazin-1-yl)-phenyl]-amide]
5HT1B antagonist activity, dosage range (5-HT1B receptor): 0.006 to 5.5 mg/kg

CN1CCN(c2cccc3c(=O)cc(C(=O)Nc4ccc(N5CCN(S(C)(=O)=O)CC5)cc4)oc23)CC1 [Example 11, 8-(4-Methyl-piperazin-1-yl)-4-oxo-4H-chromene-2-carboxylic acid [4-(4-methanesulfonyl-piperazin-1-yl)-phenyl]-amide]
5HT1B antagonist activity, dosage range (5-HT1B receptor): 0.006 to 5.5 mg/kg

CN1CCN(c2cccc3c(=O)cc(C(=O)Nc4ccc(N5CCOCC5)cc4)oc23)CC1 [Example 1, 8-(4-methyl-1-piperazinyl)-N-[4-(4-morpholinyl)phenyl]-4-oxo-4H-chromene-2-carboxamide]
5HT1B antagonist activity, dosage range (5-HT1B receptor): 0.006 to 5.5 mg/kg

CN1CCN(c2cc(F)cc3c(=O)cc(C(=O)Nc4ccc(N5CCOCC5)cc4)oc23)CC1 [Example 55, 6-Fluoro-8-(4-methyl-piperazin-1-yl)-4-oxo-4H-chromene-2-carboxylic acid (4-morpholin-4-yl-phenyl)-amide]
5HT1B antagonist activity, dosage range (5-HT1B receptor): 0.006 to 5.5 mg/kg
